Assay results reported in publication PMC7275037.
For at least one entry, the source does not settle the construct or the ends of the probe. Weaker means in comparison with the reference protein, sequence or condition of that experiment. Protein sequences can lack the tags named with them. At least one verdict rests on a figure or table, not on a statement of the authors. The direction of at least one scale is not stated here.

Molecular target: TBP (Homo sapiens) (UniProt P20226)
Experiment: smFRET
Details: TFIIB 0.2 uM, TFIIA 2 uM, recombinant protein, residues 169-339, protein details: N-terminal His

With “AAGCTTTAGGGCGCCTATAAAAGGGGGTTCGGGCG (double strand) [AdMLP promoter in DNA origami force clamp]” the binding result (3.3 pN) was “binds more weakly” and the binding signal (% high FRET (bent)) (6.0 pN, 20 nM TBP) was 15.

“CGGACCAAGATGATTTGATTGAAGGGCTTAAAATAGGTGTTAGAGTAACCCTTGA (double strand) [U6 snRNA promoter in DNA origami force clamp]”: binds more weakly (6.6 pN, bent fraction reduced at higher force).

“CGGACCAAGATGATTTGATTGAAGGGCTTAAAATAGGTGTTAGAGTAACCCTTGA / TCAAGGGTTACTCTCACACCTATTTTAAGCCCTTCAATCAAATCATCTTGGTCCG [U6 linear dsDNA]”: binds (linear dsDNA, E=0.39, label: ATTO 532 and ATTO 647N on S17 strand).
